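Assay on Mycobacterium tuberculosis, filed only as a heat shock assay from Cornell; the read-out is not stated. The concentration is filed as 10 mM, unlikely as a test dose, so the dose is not known. Higher reads as stronger inhibition (inferred: compounds with an IC50 in retests scored well above the rest). About 69,000 compounds were tested under these conditions; 1.4% (about 930) showed 50% or more at least once.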

Each number is a percent effect as filed.
The controls that fix the scale are not given in the record; negative values are as filed.
The compounds are a random part of those screened.

[H][C@@]12CCN(C(=O)c3c(C)noc3C)C[C@@]1([H])O[C@H](c1ccncn1)C2 gave 4.862%. For Cc1nn(C)c2ncc(S(=O)(=O)N3CCN4CCCC4C3)cc12 (centres unmarked) the result was 2.212%. With CCS(=O)(=O)N1CCOC2(COCCN(c3nccs3)C2)C1 (centres unmarked) the screen gave -8.859%. With [H][C@]12CC[C@]([H])(CN(Cc3ccccn3)C1)N(C(=O)c1cc(C(C)C)on1)C2 the screen gave 14.65%. Result for O=C(NCCN1CCOCC1)Nc1cnc2cc(Cl)ccc2c1O was -26.61%.

Result for Cn1cnc(S(=O)(=O)N2CCCc3c(F)cc(F)cc32)c1Cl was -14.34%. With NC(=O)NCCC(=O)NCc1cccnc1N1CCc2ccccc2C1 the screen gave -0.3252%. With CCc1nc(C2CCCN2CC(=O)N2CCc3ccccc32)no1 (centres unmarked) the screen gave -6.855%. CCc1n[nH]c(C2CN(C(=O)c3ncoc3CC)CCO2)n1 (centres unmarked) gave 2.391%. Result for COc1ncccc1CNC1CCc2c(ccc(=O)n2C)C1.O=C(O)C(F)(F)F.O=C(O)C(F)(F)F (centres unmarked) was 17.68%.

For O=C(c1nc(Cc2c[nH]c3ccccc23)no1)N1CCOCC1 the result was 4.983%. With CN(C)CCN1C(=O)CCC12CCCN(C(=O)CC1CC1)CC2 (centres unmarked) the screen gave -12.75%. For Cc1cccc(C(=O)Nc2c(C(=O)N(C)C)nn(C)c2C)c1 the result was -5.956%. O=C(NC1CC2(CCN(CCO)CC2)c2ccccc21)c1ccncc1.O=C(O)C(F)(F)F.O=C(O)C(F)(F)F (centres unmarked) gave -11.45%. O=C(N1CCCC(n2cncn2)C1)C1(c2cccc(F)c2)CC1 (centres unmarked) gave -7.792%.

For O=C(O)C(F)(F)F.[H][C@]12CCN(C(=O)c3ccno3)[C@@]1([H])CC[C@@H](COCCN1CCCC1)O2 the result was -42.61%. CCN1Cc2c(C(=O)NC(C)C)ncn2-c2ccccc2S1(=O)=O read -6.944%. O=c1ccc(-c2cccs2)nn1CN1CCOCC1 read 13.58%. CNC(=O)N1CCC2(COCc3c(C)nc(NCc4ccco4)nc32)C1 (centres unmarked) read 5.301%. For COc1ccnc(CNc2nc(C)nc(C)c2C)c1 the result was -133.7%.

For Cc1cnn(CC2CN(Cc3nc(C)no3)CCO2)c1 (centres unmarked) the result was 5.166%. CN(C)C1CCN(C(=O)c2cc3c(s2)CCN3C(=O)C2CC2)CC1.O=C(O)C(F)(F)F gave -19.27%. With O=C(O)C(F)(F)F.[H][C@@]12CCCO[C@]1([H])[C@H](NS(C)(=O)=O)CN(Cc1ccc(C)o1)C2 the screen gave 12.11%. Result for O=C(NCCn1ccnc1C1CCOC1)c1cccnc1 (centres unmarked) was -3.013%. Cn1cnc(S(=O)(=O)NCC2(O)CCc3ccccc3C2)c1 (centres unmarked) read 7.807%.

Cc1noc(C)c1CNC(=O)N1CCC(OCC2CC2)CC1 read -22.24%. Result for CN1C[C@@H](NC(=O)c2cc(F)cc(F)c2)C[C@H]1C(=O)NCc1ncc[nH]1 was 5.328%. For CC(C)N1CC(NC(=O)c2ccc(Cl)s2)CC1=O (centres unmarked) the result was 6.095%. Cc1nn(C)c(C)c1NC(=O)CN1CCCC1c1noc(C2CC2)n1 (centres unmarked) gave -2.928%. For CCOc1ccc(NC(=O)N2CCOC(C(N)=O)C2)cc1Cl (centres unmarked) the result was -20.51%.

COCc1nccc(C2CCCN(Cc3ccc(C#N)cc3)C2)n1 (centres unmarked) gave -14.44%. Result for CCc1nccn1C1CCCN(C(=O)c2cnc3ccccc3n2)C1 (centres unmarked) was -17.6%. CCc1nc(C2CCCN(c3ncccn3)C2)no1 (centres unmarked) gave -12.84%. Cn1nc(C(C)(C)C)cc1NC(=O)Cn1ccnc1 gave 15.89%. For Cc1cc(C)n(CC2CCCN2C(=O)Cc2cn3ccsc3n2)n1 (centres unmarked) the result was 4.183%.

For Cc1nc(C)c(CN2CCOC[C@H](Oc3cnccn3)C2)s1 the result was -6.803%. O=C(O)C(F)(F)F.O=C(O)C(F)(F)F.c1cnc(N2CCOC3(CCCN(c4cnccn4)C3)C2)nc1 (centres unmarked) gave -17.24%. CC1CN(CC(=O)NCc2cccs2)CCN1c1nccs1 (centres unmarked) read -1.512%. Result for O=C(NCCCN1CCOCC1)c1ccc(-n2ccc3ccccc32)s1 was 14.99%. Cn1c(Cn2cccn2)nnc1C1CCN(Cc2ccccc2Cl)CC1 read -1.211%.

With COc1ccc2c(O)c(NC(=O)NCC3CC3)cnc2c1 the screen gave -20.13%.

For reference, 5 entries once more:

For Cc1cnn(CC2CN(Cc3nc(C)no3)CCO2)c1 (centres unmarked) the result was 5.166%.
For CCc1nccn1C1CCCN(C(=O)c2cnc3ccccc3n2)C1 (centres unmarked) the result was -17.6%.
For CCc1nc(C2CCCN(c3ncccn3)C2)no1 (centres unmarked) the result was -12.84%.
For Cn1nc(C(C)(C)C)cc1NC(=O)Cn1ccnc1 the result was 15.89%.
For O=c1ccc(-c2cccs2)nn1CN1CCOCC1 the result was 13.58%.

The values are deposited in ChEMBL (CHEMBL3988442, “University of Dundee, Small-Polar-MMV Screening Library” (2021)).